The values below come from patent publication US9341631B2, “Long wavelength fluorogenic intracellular ion indicators that are well retained in the cytosol” (Life Technologies Corporation, priority 2007, dated 2016).

The nature of this series: Imaging of cellular localization. The settings on record: FIG. 2. The series is classed as cell-based.

For Fluo-4, the cellular localization entry is “green cytosolic signal”.
Then Rhod-2, with “mitochondrial localization”.
